Results reported in PubChem BioAssay (NCATS).
The inconclusive results got no clear call from the source; some entries with a clear call stand among them for comparison. Potencies beside an inconclusive call are fits to weak or partial responses and may not hold up. A note “side channel” means that the fit belongs to a control or component signal, not to the main read-out. Active and inactive are the calls of the source. The call rests on the fitted dose curve; in most records, active means well fitted inhibition curve with a large enough effect in the signal ratio, with a control signal flat (not every such curve was filed as active); inconclusive means small, poorly fitted or top-dose-only effect, or effect the other way, or a change in a side signal; inactive means no such curve, though single readings can be large or run the other way; the % refers to the signal ratio.

Protein sequences, listed by entry. Tags and fused reporters are not part of them. Lines headed by an entry give the natural chain unless they say otherwise; changes in a name come on top.
UniProt Q03181: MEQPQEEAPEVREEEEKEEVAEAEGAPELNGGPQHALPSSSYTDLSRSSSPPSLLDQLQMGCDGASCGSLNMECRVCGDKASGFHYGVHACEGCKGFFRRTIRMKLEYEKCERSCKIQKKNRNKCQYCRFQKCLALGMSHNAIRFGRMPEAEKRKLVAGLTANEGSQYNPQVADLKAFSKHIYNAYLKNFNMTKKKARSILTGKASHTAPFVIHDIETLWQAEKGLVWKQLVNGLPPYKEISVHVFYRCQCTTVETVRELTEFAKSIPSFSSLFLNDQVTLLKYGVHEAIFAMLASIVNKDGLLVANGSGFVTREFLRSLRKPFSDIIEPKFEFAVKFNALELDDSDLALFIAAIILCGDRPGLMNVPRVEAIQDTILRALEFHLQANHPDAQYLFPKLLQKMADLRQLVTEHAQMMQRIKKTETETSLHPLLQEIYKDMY

Biological target: Peroxisome proliferator-activated receptor delta (Homo sapiens) (UniProt Q03181)
Test: qHTS assay for small molecule antagonists of peroxisome proliferator-activated receptor delta signaling (AID 588535)
Conditions: HEK293T PPARd-UAS-bla, beta-lactamase FRET ratio, 18 h; activity change, negative = inhibition: at 76.7 µM (top of the series) unless noted
From the text: NIH Chemical Genomics Center [NCGC] U.S. Environmental Protection Agency [EPA] National Institutes of Environmental Health Sciences [NIEHS] National Toxicology Program [NTP] NCGC Assay Overview The Peroxisome proliferator-activated receptors (PPARs) are lipid-activated transcription factors of the nuclear receptor superfamily with three distinct subtypes namely PPAR alpha, PPAR delta (also called PPAR beta) and PPAR gamma. All these subtypes heterodimerizes with Retinoid X receptor (RXR) and have different physiological functions. […] This role of PPAR delta implicates the potential use of its ligands in the treatment of metabolic disorders.
NCGC Assay Protocol Summary Using a beta-lactamase reporter-gene under control Peroxisome Proliferator-Activated Receptor delta (PPAR-delta) response element, a cell-based assay [GeneBLAzer (PPAR-delta-UAS-bla assay developed by Invitrogen] was used to measure PPAR-delta ligands signaling. GeneBLAzer PPAR-delta-UAS-bla HEK293T cells were used with assay medium containing 2% charcoal/dextran FBS. The assay was performed in clear bottom black Greiner 1536-well plates. Library compounds were measured for their ability to inhibit the reporter gene activity. Compounds were screened in a titration series in 1536-well format. The fluorescence intensity (405 nm excitation, 460/530 nm emission) was measured using an EnVision plate reader. […] Concentration-response titration points for each compound were fitted to the Hill equation yielding concentrations of half-maximal inhibition (IC50) and maximal response (efficacy) values. qHTS protocol for PPAR-delta beta-lactamase assay in antagonist mode [Step] [Parameter] [Value] [Description] 1. Reagent; 5 uL; 4000 cells/well 2. Incubation; 37 C for 5 hrs 3. Compounds; 23 nL; 0.59 nM to 92 uM 4. […] Incubation; 37 C for 18 hrs 7. Detection reagent; 1 uL of CCF4-dye 8. Incubation; RT for 2 hrs 9. Detection; Fluorescence; Envision plate reader

SMILES | activity change, negative = inhibition | Potency
CC(C)Cc1nccs1 | inconclusive: -23.2% | –
O=C(O)c1cc2ccccc2cc1O | inconclusive: 15.9% | –
C=CC(=O)OCC(C)OCC(C)OCC(C)OC(=O)C=C (stereo not given) | – | inactive
OCc1cccc(Oc2ccccc2)c1 | – | inactive
CN=C(N)NCC1CCOC1 (stereo not given) | inconclusive: -20.2% | –
Cc1ccc(C#N)cc1 | – | inactive
Cc1ccc(C(=O)O)cc1 | inconclusive: 18.2% | –
Cc1cc([N+](=O)[O-])ccc1N | inconclusive: -52.2% | –
c1ccc2cc3ccccc3cc2c1 | inconclusive: 32.2% | –
C=CCn1c(=O)n(CC=C)c(=O)n(CC=C)c1=O | inconclusive: 12.4% | –
COc1cc(-c2ccc(N=C=O)c(OC)c2)ccc1N=C=O | inconclusive: -9.3% | inconclusive: 31.6 µM [cytotoxic, side channel, partial curve, poor fit]
FC(F)(F)c1ccc(Cl)c(Cl)c1 | – | inactive
Nc1nc(CC(=O)O)cs1 | inconclusive: -11.8% | –
O=[N+]([O-])c1cccc(I)c1 | – | inactive
C=C(C)C(=O)OCCCCCCCCCC | inconclusive: -19% | –
Nc1c(N=Nc2ccc(S(=O)(=O)CCOS(=O)(=O)O)cc2)c(S(=O)(=O)O)cc2cc(S(=O)(=O)O)c(N=Nc3ccc(S(=O)(=O)CCOS(=O)(=O)O)cc3)c(O)c12 | – | inactive
CC(N)CN (stereo not given) | – | inactive
Cc1ccc(C(=O)c2ccccc2)cc1 | – | inactive
CCc1ccccc1O | – | inactive
O=c1oc2cc(O)ccc2c2oc3cc(O)ccc3c12 | – | inconclusive: 50.1 µM [activator, single point]

SMILES | activity change, negative = inhibition | Potency
C/C=C1\CC2C=CC1C2 (stereo not given) | – | inactive
Nc1ccc2c(c1)C(=O)c1ccccc1C2=O | inconclusive: -4.32% | –
C=C[Si](OCCOC)(OCCOC)OCCOC | – | inactive
CCCCN(CCCC)CCCCCCN(CCCC)CCCC | – | inactive
CCCCC/C=C/C=C/C=O | – | inconclusive: 44.7 µM [falling, partial curve, poor fit]
Clc1nc(Cl)c(Cl)c(Cl)c1Cl | – | inactive
CCOc1cccc(N)c1 | – | inactive
O=C1NC(=O)C(Cc2ccc(OCCN3COc4ccccc4C3=O)cc2)S1 (stereo not given) | inconclusive: 19.3% | –
N#CSCSc1nc2ccccc2s1 | – | inconclusive: 39.8 µM [side channel, rising, partial curve, poor fit]
c1ccc2c(c1)ccc1c3ccccc3ccc21 | – | inactive
C[Si](C)(C)O[Si](C)(C)O[Si](C)(C)C | – | inactive
Cc1ccc([N+](=O)[O-])c(C)c1 | – | inactive
O=CNc1ccccc1 | – | inconclusive: 0.0282 µM [inhibitor, full curve, poor fit]
CCN(Cc1cccc(S(=O)(=O)O)c1)c1ccc(C(=C2C=CC(=[N+](CC)Cc3cccc(S(=O)(=O)[O-])c3)C=C2)c2ccccc2)cc1 | inconclusive: 25.7% | –
CC(=O)OC(C)C | – | inactive
CC[C@H](C)C1O[C@]2(C=C[C@@H]1C)C[C@@H]1C[C@@H](C/C=C(\C)[C@@H](O[C@H]3C[C@H](OC)[C@@H](O[C@H]4C[C@H](OC)[C@H](NC(C)=O)[C@H](C)O4)[C@H](C)O3)[C@@H](C)/C=C/C=C3\CO[C@@H]4[C@H](O)C(C)=C[C@@H](C(=O)O1)[C@]34O)O2 (stereo not given in full) | – | inconclusive: 35.5 µM [side channel, rising, partial curve]
O=C(O)c1ccc(Cl)c(Cl)c1 | – | inactive
CCCN(CCC)c1c([N+](=O)[O-])cc(C(F)(F)F)c(N)c1[N+](=O)[O-] | inconclusive: -75% | –
CC(=O)OC(C(=O)c1ccccc1)c1ccccc1 (stereo not given) | inconclusive: -7.74% | –

Of the compounds above, these have nitrogen in an aromatic ring:
SMILES | activity change, negative = inhibition | Potency
CC(C)Cc1nccs1 | inconclusive: -23.2% | –
C=CCn1c(=O)n(CC=C)c(=O)n(CC=C)c1=O | inconclusive: 12.4% | –
Nc1nc(CC(=O)O)cs1 | inconclusive: -11.8% | –
Clc1nc(Cl)c(Cl)c(Cl)c1Cl | – | inactive
N#CSCSc1nc2ccccc2s1 | – | inconclusive: 39.8 µM [side channel, rising, partial curve, poor fit]
